Source: paper PMC10870380
These are yes or no findings as the source states them, for the method shown. In cells and extracts the contact can be indirect. Some results given as binding are weak or reduced against the parent protein; the word gives no strength. Values belong to the binder of their own block, whether it stands above or below them.

Protein sequences, listed by entry. Tags and fused reporters are not part of them.
UniProt O95639: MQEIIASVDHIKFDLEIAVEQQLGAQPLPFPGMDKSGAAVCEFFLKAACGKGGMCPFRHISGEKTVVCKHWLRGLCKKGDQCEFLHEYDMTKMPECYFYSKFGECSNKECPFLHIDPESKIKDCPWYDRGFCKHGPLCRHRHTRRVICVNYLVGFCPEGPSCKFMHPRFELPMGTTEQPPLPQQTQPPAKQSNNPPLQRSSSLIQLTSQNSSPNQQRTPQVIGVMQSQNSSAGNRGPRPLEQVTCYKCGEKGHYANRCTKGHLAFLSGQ

Target: CPSF4 (human (endogenous in human pancreatic cell lines; the line used for the IP is not stated)) (UniProt O95639)
Experiment: co-IP; immunoprecipitation of CPA complexes from cells with CPSF3 knockdown or control, or with CPSF3 inhibition (JTE-607); the amount bound decreases upon knockdown and is not affected by inhibition

binding: binds
B1: CPSF2 (protein, UniProt Q9P2I0 1-782)
chain: MTSIIKLTTLSGVQEESALCYLLQVDEFRFLLDCGWDEHFSMDIIDSLRKHVHQIDAVLLSHPDPLHLGALPYAVGKLGLNCAIYATIPVYKMGQMFMYDLYQSRHNTEDFTLFTLDDVDAAFDKIQQLKFSQIVNLKGKGHGLSITPLPAGHMIGGTIWKIVKDGEEEIVYAVDFNHKREIHLNGCSLEMLSRPSLLITDSFNATYVQPRRKQRDEQLLTNVLETLRGDGNVLIAVDTAGRVLELAQLLDQIWRTKDAGLGVYSLALLNNVSYNVVEFSKSQVEWMSDKLMRCFEDKRNNPFQFRHLSLCHGLSDLARVPSPKVVLASQPDLECGFSRDLFIQWCQDPKNSIILTYRTTPGTLARFLIDNPSEKITEIELRKRVKLEGKELEEYLEKEKLKKEAAKKLEQSKEADIDSSDESDIEEDIDQPSAHKTKHDLMMKGEGSRKGSFFKQAKKSYPMFPAPEERIKWDEYGEIIKPEDFLVPELQATEEEKSKLESGLTNGDEPMDQDLSDVPTKCISTTESIEIKARVTYIDYEGRSDGDSIKKIINQMKPRQLIIVHGPPEASQDLAECCRAFGGKDIKVYMPKLHETVDATSETHIYQVRLKDSLVSSLQFCKAKDAELAWIDGVLDMRVSKVDTGVILEEGELKDDGEDSEMQVEAPSDSSVIAQQKAMKSLFGDDEKETGEESEIIPTLEPLPPHEVPGHQSVFMNEPRLSDFKQVLLREGIQAEFVGGVLVCNNQVAVRRTETGRIGLEGCLCQDFYRIRDLLYEQYAIV

binding: binds
B2: cleavage and polyadenylation specificity factor 3 (enzyme, UniProt Q9UKF6 1-684)
chain: MSAIPAEESDQLLIRPLGAGQEVGRSCIILEFKGRKIMLDCGIHPGLEGMDALPYIDLIDPAEIDLLLISHFHLDHCGALPWFLQKTSFKGRTFMTHATKAIYRWLLSDYVKVSNISADDMLYTETDLEESMDKIETINFHEVKEVAGIKFWCYHAGHVLGAAMFMIEIAGVKLLYTGDFSRQEDRHLMAAEIPNIKPDILIIESTYGTHIHEKREEREARFCNTVHDIVNRGGRGLIPVFALGRAQELLLILDEYWQNHPELHDIPIYYASSLAKKCMAVYQTYVNAMNDKIRKQININNPFVFKHISNLKSMDHFDDIGPSVVMASPGMMQSGLSRELFESWCTDKRNGVIIAGYCVEGTLAKHIMSEPEEITTMSGQKLPLKMSVDYISFSAHTDYQQTSEFIRALKPPHVILVHGEQNEMARLKAALIREYEDNDEVHIEVHNPRNTEAVTLNFRGEKLAKVMGFLADKKPEQGQRVSGILVKRNFNYHILSPCDLSNYTDLAMSTVKQTQAIPYTGPFNLLCYQLQKLTGDVEELEIQEKPALKVFKNITVIQEPGMVVLEWLANPSNDMYADTVTTVILEVQSNPKIRKGAVQKVSKKLEMHVYSKRLEIMLQDIFGEDCVSVKDDSILSVTVDGKTANLNLETRTVECEEGSEDDESLREMVELAAQRLYEALTPVH
